This is an account of results in article PMC8809462.

No constants are given. Whether binding was seen depends on the method and setting. Binding seen in cells or lysates may run through a third protein. A result given as binding can be weak or reduced; the word gives no strength.

The assay has as its target JNK (mouse (endogenous in BV2 and primary mouse microglia)). As to the kind of experiment: co-IP; immunoprecipitation from microglia (BV2 cells and primary microglia), DUSP6 detected by Western blot; cells with or without silencing of TCONS_00145741 and with 20 U/ml thrombin for 24 h (Figure 5D); no protocol in the methods. For orientation: Immunoblotting shows a protein as a band on a membrane.

B1: DUSP6 (enzyme, UniProt Q9DBB1 1-381)
chain: MIDTLRPVPFASEMAICKTVSWLNEQLELGNERLLLMDCRPQELYESSHIESAINVAIPGIMLRRLQKGNLPVRALFTRCEDRDRFTRRCGTDTVVLYDENSSDWNENTGGESVLGLLLKKLKDEGCRAFYLEGGFSKFQAEFALHCETNLDGSCSSSSPPLPVLGLGGLRISSDSSSDIESDLDRDPNSATDSDGSPLSNSQPSFPVEILPFLYLGCAKDSTNLDVLEEFGIKYILNVTPNLPNLFENAGEFKYKQIPISDHWSQNLSQFFPEAISFIDEARGKNCGVLVHCLAGISRSVTVTVAYLMQKLNLSMNDAYDIVKMKKSNISPNFNFMGQLLDFERTLGLSSPCDNRVPTPQLYFTTPSNQNVYQVDSLQST
On to B1, for which the binding result is “binds”.
